# The supplement of paper PMC5770031
# Structures can show the parent of a compound that is named as a salt. This is one part of the list. This data set is noisy: repeats of one test often differ as much as different tests do.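 ATM8/balancer (normal ATM) heterozygous flies were crossed on treated food; parents laid eggs 5–6 days, offspring developed ~12 days, so parents and larvae ingested compound. Readout: fraction of emerged adults homozygous for ATM8 versus 2% DMSO controls. Compounds were neutral at 10–20% homozygotes, harmful below 10%, helpful above 20%.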
# System: Drosophila melanogaster ATM8 (temperature-sensitive ATM allele)
# Experiment: fraction of eclosed F1 progeny that are homozygous ATM8 (rescue of developmental lethality); higher = more rescue of ATM8 developmental lethality; extreme values may be limits of the assay
# Conditions: compound concentration applied to food 0.2 mM; 21 °C
row,Structure (SMILES),fraction of eclosed F1 progeny that are homozygous ATM8
1,CC(=O)Oc1c[nH]c2ccccc12,0.167
2,COc1ccc([C@@H]2CC(=O)c3c(O)cc(O[C@@H]4O[C@H](CO[C@@H]5O[C@@H](C)[C@H](O)[C@@H](O)[C@H]5O)[C@@H](O)[C@H](O)[C@H]4O)cc3O2)cc1O,0.135
3,COc1c2ccoc2c(OC)c2oc(=O)ccc12,0.08
4,c1ccc2c(c1)cc1ccc3cccc4ccc2c1c34,0.262
5,COc1cc(OC)c(C(C)=O)c(O)c1C,0.0909
6,Cc1onc(-c2c(Cl)cccc2Cl)c1C(=O)N[C@@H]1C(=O)N2[C@@H]1SC(C)(C)[C@@H]2C(=O)O,0.24
7,CN1C(C)(C)CCCC1(C)C,0.111
8,CC[N+](C)(C)Cc1ccccc1Br,0.319
9,C[N+](C)(C)CCCCCC[N+](C)(C)C,0.118
10,CN(C)/N=N/c1[nH]cnc1C(N)=O,0.0541
11,O=c1ccc2ccc(O)cc2o1,0.125
12,O=C(O)c1cccnc1Nc1cccc(C(F)(F)F)c1,0.0682
13,CC(=O)Oc1ccc2c(c1)CC[C@@H]1[C@@H]2CC[C@]2(C)[C@@H](O)CC[C@@H]12,0.0889
14,Cc1oncc1C(=O)Nc1ccc(C(F)(F)F)cc1,0.0645
15,CC1CC(OC(=O)C(O)c2ccccc2)CC(C)(C)C1 (stereo not drawn),0.0755
16,CCOC(=O)[C@H](CCc1ccccc1)N[C@@H](C)C(=O)N1Cc2ccccc2C[C@H]1C(=O)O,0.0726
17,CC(CCc1ccccc1)NCC(O)c1ccc(O)c(C(N)=O)c1 (stereo not drawn),0.0446
18,O=C(O)c1cccc(O)c1O,0.0833
19,NC(=O)c1cc[n+](CC2=C(C(=O)O)N3C(=O)[C@@H](NC(=O)[C@@H](c4ccccc4)S(=O)(=O)[O-])[C@H]3SC2)cc1,0.425
20,CCCCCCCCCc1ccc(OCCOCCOCCOCCOCCOCCOCCOCCOCCO)cc1,0.2

# Retrieved one by one from above (two):
row,Structure (SMILES),fraction of eclosed F1 progeny that are homozygous ATM8
10,CN(C)/N=N/c1[nH]cnc1C(N)=O,0.0541
15,CC1CC(OC(=O)C(O)c2ccccc2)CC(C)(C)C1 (stereo not drawn),0.0755

# (list continues)

row,Structure (SMILES),fraction of eclosed F1 progeny that are homozygous ATM8
1,CC(C)c1ccc2oc3nc(N)c(C(=O)O)cc3c(=O)c2c1,0.0909
2,COc1c(-c2coc3cc4c(cc3c2=O)CC(OC(C)=O)C(C)(C)O4)ccc2c1C=CC(C)(C)O2 (stereo not drawn),0.093
3,CC1(C)S[C@@H]2[C@H](NC(=O)[C@H](NC(=O)N3CCNC3=O)c3ccccc3)C(=O)N2[C@H]1C(=O)O,0.0405
4,N#C/C(=C\c1ccc(O)cc1)C(=O)O [alpha-CYANO-4-HYDROXYCINNAMIC ACID],0.0645
5,CC(=O)Oc1ccc(/C=C/c2cc(OC(C)=O)cc(OC(C)=O)c2)cc1,0.214
6,COC(=O)Nc1nc2cc(C(=O)c3ccccc3)ccc2[nH]1,0.127
7,CC1=C(O)C(=O)C=C2C1=CC=C1[C@@]2(C)CC[C@@]2(C)[C@@H]3C[C@](C)(C(=O)O)CC[C@]3(C)CC[C@]12C,0.046
8,CCCCCCc1ccc(O)cc1O.Nc1c2ccccc2nc2ccccc12,0.238
9,Cc1cc2c(cc1S(N)(=O)=O)S(=O)(=O)CCC2,0.238
10,CC1(C)CC[C@]2(C)CC[C@]3(C)C(=CC[C@@H]4[C@@]5(C)CC[C@H](O)C(C)(C)[C@@H]5CC[C@]43C)[C@@H]2C1 [beta-AMYRIN],0.208
11,CC(C)(O)C(Cl)(Cl)Cl,0.103
12,OCCOCCN1CCN(C2=Nc3ccccc3Sc3ccccc32)CC1,0.324
13,Cc1cc(O)c(C)c(O)c1C(=O)O,0.111
14,COC(=O)[C@]1(C)CC[C@]2(C)CC[C@]3(C)C4=CC=C5C(=CC(=O)C(O)=C5C)[C@]4(C)CC[C@@]3(C)[C@@H]2C1,0.35
15,CC1(C)S[C@@H]2[C@H](NC(=O)[C@H](N)c3ccc(O)cc3)C(=O)N2[C@H]1C(=O)O,0.05
16,COc1cccc2c1C(=O)c1c(O)c3c(c(O)c1C2=O)C[C@@](O)(C(=O)CO)C[C@@H]3O[C@H]1C[C@H](N)[C@H](O)[C@H](C)O1,0
17,NC(=O)SC[C@H](N)C(=O)O,0.217
18,Cc1ncc(CNC(=O)N(CCCl)N=O)c(N)n1,0.2
19,CN[C@@H]1[C@H](O[C@H]2[C@H](O[C@H]3[C@H](O)[C@@H](O)[C@H](N=C(N)N)[C@@H](O)[C@@H]3N=C(N)N)O[C@@H](C)[C@]2(O)C=O)O[C@@H](CO)[C@H](O)[C@H]1O [STREPTOMYCIN SULFATE [5mM; 10% aq DMSO + 5mM ethanolamine]],0.194
20,Cc1ccc2c(Br)cc(Br)c(OC(=O)c3ccccc3)c2n1,0.247

row,Structure (SMILES),fraction of eclosed F1 progeny that are homozygous ATM8
1,Cc1cccc(C(=O)O)c1O,0.0556
2,Fc1ccc(C(c2ccc(F)cc2)N2CCN(C/C=C/c3ccccc3)CC2)cc1,0.0741
3,CN1CCc2c(c3ccccc3n2Cc2ccccc2)C1,0.0952
4,COc1ccc2oc(-c3ccccc3OC)cc(=O)c2c1,0.207
5,Cc1ccc(Nc2c(F)cccc2Cl)c(CC(=O)O)c1,0
6,CCCCC(=O)O[C@H]1CC[C@H]2[C@@H]3CCc4cc(O)ccc4[C@H]3CC[C@]12C,0
7,COc1ccc(/C=C/C(=O)O)cc1OC,0.0635
8,CC(=O)Nc1cc2ccccc2oc1=O,0.125
9,CN1CCCCC1c1ccc(-c2cccnc2)nc1 (stereo not drawn),0.0889
10,O=C(OC[C@H]1O[C@@H](OC(=O)c2cc(O)c(O)c(OC(=O)c3cc(O)c(O)c(O)c3)c2)[C@H](OC(=O)c2cc(O)c(O)c(OC(=O)c3cc(O)c(O)c(O)c3)c2)[C@@H](OC(=O)c2cc(O)c(O)c(OC(=O)c3cc(O)c(O)c(O)c3)c2)[C@@H]1OC(=O)c1cc(O)c(O)c(OC(=O)c2cc(O)c(O)c(O)c2)c1)c1cc(O)c(O)c(OC(=O)c2cc(O)c(O)c(O)c2)c1,0.178
11,N=C(N)c1ccc(OCCCCCOc2ccc(C(=N)N)cc2)cc1,0.125
12,CO/N=C(\C(=O)N[C@@H]1C(=O)N2C(C(=O)OCOC(=O)C(C)(C)C)=C(/C=C\c3scnc3C)CS[C@H]12)c1csc(N)n1,0.373
13,CCCCCCCCCc1ccc(O)cc1,0.417
14,c1ccc2c(Cc3c[nH]c4ccccc34)c[nH]c2c1,0.0556
15,CN(N=O)C(=O)N[C@H]1C(O)O[C@H](CO)[C@@H](O)[C@@H]1O (mixture of isomers),0.17
16,CC1=C(CCC(=O)O)c2cc3[nH]c(cc4nc(cc5[nH]c(cc1n2)c(C)c5C(C)O)C(C)=C4C(C)O)c(C)c3CCC(=O)O (stereo not drawn),0.187
17,CCOC(=O)C1=C[C@@H](OC(CC)CC)[C@H](NC(C)=O)[C@@H](N)C1,0.136
18,CNCCCC1c2ccccc2C=Cc2ccccc21,0.193
